The target in assay [1] is U1-70K (human (endogenous in HeLa)) (UniProt P08621). The experiment in a line: co-IP; cytoplasmic HeLa extract treated with RNase A/T1 (0.02 mg/ml RNase A, 50 U/ml RNase T1) on ice for 30 min before immunoprecipitation; Western blot. (In general: A western blot detects proteins with antibodies after separation by electrophoresis.)
For assay [2] the target is unchanged. The experiment in a line: co-IP; anti-U1-70K, anti-U1C or anti-U1A antibody on Dynabeads Protein G; cytoplasmic HeLa extract (2 mg/ml) in RSB-100 with 0.1% NP-40, 1 h at 4 °C; washes in RSB-200 with 0.02% NP-40; Western blot.
Assay [3] addresses U1A (human (endogenous in HeLa)) (UniProt P09012). The assay is described as above.
Assay [4] has as its target U1C C-terminus domain peptide (aa 135-159) without di-methylarginine (human) (UniProt P09234). The experiment in a line: pull-down; biotinylated U1C peptide (0.5 nmol) on Dynabeads MyOne Streptavidin C1 in RSB-200 with 0.02% Triton X-100; HeLa cytoplasmic extract (2 mg/ml), 1 h at 4 °C; five washes in the same buffer; Western blot; only the target purified.
In assay [5] the target is SMN (human (endogenous in HeLa)) (UniProt Q16637). The experiment in a line: co-IP; anti-SMN or anti-Gemin5 antibody on Dynabeads Protein G; cytoplasmic HeLa extract (2 mg/ml) in RSB-100 with 0.1% NP-40, 1 h at 4 °C; washes in RSB-200 with 0.02% NP-40; Western blot.
Assay [6] has as its target Gemin5 (human (endogenous in HeLa)) (UniProt Q8TEQ6). The assay is described as above.

Protein sequences, listed by entry. Tags and fused reporters are not part of them. Lines headed by an entry give the natural chain unless they say otherwise; changes in a name come on top. Residues count along the entry.
UniProt P08621: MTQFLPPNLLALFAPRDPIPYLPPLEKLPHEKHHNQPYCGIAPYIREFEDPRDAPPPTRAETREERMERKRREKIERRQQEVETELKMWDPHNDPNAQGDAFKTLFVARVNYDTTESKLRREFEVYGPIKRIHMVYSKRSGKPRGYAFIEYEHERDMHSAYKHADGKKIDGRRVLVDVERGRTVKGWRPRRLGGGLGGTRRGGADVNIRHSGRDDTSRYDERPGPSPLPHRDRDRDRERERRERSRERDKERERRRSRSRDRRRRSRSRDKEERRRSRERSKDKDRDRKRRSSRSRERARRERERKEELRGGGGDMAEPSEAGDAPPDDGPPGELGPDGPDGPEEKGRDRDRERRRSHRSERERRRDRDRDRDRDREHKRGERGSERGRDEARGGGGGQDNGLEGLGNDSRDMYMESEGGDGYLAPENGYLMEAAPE
UniProt P09012: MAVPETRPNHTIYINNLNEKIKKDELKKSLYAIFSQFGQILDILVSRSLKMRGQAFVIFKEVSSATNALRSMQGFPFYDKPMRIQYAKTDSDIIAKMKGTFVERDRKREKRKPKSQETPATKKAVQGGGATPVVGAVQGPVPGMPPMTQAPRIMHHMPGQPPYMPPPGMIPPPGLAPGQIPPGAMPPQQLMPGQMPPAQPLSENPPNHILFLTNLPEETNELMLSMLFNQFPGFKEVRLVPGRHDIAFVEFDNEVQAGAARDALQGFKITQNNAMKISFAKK
UniProt P09234, residues 135-159: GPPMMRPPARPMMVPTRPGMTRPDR
UniProt Q16637: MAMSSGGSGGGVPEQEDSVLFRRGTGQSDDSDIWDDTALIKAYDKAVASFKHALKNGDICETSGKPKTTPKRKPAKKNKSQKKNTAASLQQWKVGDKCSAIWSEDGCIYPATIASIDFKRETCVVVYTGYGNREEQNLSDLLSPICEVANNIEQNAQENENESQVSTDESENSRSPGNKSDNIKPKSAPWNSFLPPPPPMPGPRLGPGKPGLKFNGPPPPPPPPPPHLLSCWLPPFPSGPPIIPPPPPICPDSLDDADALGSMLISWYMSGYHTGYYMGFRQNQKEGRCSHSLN
UniProt Q8TEQ6: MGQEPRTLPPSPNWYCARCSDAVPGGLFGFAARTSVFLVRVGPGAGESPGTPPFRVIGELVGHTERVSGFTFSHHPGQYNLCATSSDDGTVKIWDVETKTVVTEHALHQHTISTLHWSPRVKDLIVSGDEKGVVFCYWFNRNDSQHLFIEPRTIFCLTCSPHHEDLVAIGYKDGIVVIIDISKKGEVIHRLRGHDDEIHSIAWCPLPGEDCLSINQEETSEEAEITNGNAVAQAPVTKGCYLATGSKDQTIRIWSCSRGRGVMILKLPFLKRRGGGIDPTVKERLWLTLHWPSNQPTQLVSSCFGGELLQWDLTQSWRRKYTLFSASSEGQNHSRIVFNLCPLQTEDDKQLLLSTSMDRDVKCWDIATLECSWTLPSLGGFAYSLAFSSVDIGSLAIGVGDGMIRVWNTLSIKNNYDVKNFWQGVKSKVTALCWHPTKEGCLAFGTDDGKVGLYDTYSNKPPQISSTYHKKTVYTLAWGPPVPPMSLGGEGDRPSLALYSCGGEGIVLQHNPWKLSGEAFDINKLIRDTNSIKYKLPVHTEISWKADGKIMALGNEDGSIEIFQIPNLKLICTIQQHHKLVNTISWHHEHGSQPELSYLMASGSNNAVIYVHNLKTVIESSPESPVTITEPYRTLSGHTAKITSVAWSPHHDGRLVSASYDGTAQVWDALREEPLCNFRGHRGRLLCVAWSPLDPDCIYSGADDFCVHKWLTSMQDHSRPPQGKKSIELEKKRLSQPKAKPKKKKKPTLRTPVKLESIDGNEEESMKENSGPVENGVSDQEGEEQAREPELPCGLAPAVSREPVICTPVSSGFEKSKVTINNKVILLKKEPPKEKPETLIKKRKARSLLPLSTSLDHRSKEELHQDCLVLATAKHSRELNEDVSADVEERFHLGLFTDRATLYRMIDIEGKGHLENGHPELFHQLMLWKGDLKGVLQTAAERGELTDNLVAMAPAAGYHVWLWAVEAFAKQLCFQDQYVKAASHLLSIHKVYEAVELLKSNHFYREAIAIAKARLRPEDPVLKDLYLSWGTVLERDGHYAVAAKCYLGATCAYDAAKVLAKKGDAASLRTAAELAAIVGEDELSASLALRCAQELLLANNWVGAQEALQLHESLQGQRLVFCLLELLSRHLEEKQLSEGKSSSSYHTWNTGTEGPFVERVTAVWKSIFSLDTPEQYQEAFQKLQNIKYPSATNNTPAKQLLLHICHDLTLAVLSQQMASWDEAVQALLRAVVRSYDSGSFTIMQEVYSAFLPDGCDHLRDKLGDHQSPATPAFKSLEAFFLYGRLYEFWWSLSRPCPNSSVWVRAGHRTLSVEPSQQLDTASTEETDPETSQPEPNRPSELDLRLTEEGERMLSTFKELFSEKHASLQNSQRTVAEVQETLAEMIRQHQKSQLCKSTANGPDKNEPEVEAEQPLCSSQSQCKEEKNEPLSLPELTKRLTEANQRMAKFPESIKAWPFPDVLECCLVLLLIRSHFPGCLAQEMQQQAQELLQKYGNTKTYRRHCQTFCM

Results are given in words; binding and its absence hold for the method and conditions named. In cells and extracts the contact can be indirect. Some entries that bind do so weakly or less than the wild type.

Consider Gemin5 (from UniProt Q8TEQ6 1-1508), for which, in assay [1], the binding entry was “binds”.
For the substance SMN (from UniProt Q16637 1-294), the binding entry in assay [1], in assay [2] and in assay [3] was “binds” in each case.
With U1-70K (from UniProt P08621 1-437), the values for the binding entry in assay [4], in assay [5] and in assay [6] were “no binding”, “binds” and “binds”, respectively.
For U1A (from UniProt P09012 1-282), the figures for the binding entry in assay [4], in assay [5] and in assay [6] were “no binding”, “binds” and “binds”, respectively.

The values above are taken from paper PMC12390936.
